PubChem BioAssay AID1508588, Peter MacCallum Cancer Centre | 2020

Assay: 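Genome-wide search for knock-downs that heighten vemurafenib action in melanoma cells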 (primary screen)
Cell system: human WM266.4 melanoma cells (BRAF V600 mutant)
Reagent: siRNA pool against human genes, 40 nM
Time to read-out: 96 h from transfection to read-out
Challenge: vemurafenib 300 nM (about IC25), added 48 h after transfection, for 48 h; comparison arm got DMSO vehicle only
Measured: 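Cell gain (DAPI nuclei at end minus before drug, mean of two replicates) and medium lactate by absorbance per cell, both as ratio to non-targeting siRNA, also grouped into fold-change classes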
Reading the numbers: cell gain with vemurafenib: higher = more cell gain than with non-targeting siRNA; lactate per cell with vemurafenib: higher = more lactate made per cell
Active means: 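a knock-down counts as enhancing when its fold-change classes with vehicle and with vemurafenib, taken together, show a stronger drug effect on cell gain or lactate per cell; exact class pairs not stated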
Calls: active = enhances vemurafenib effect; inactive = no enhancement seen
This is a random part of about 18,000 deposited reagents. 790 of them (4.4%) count as active. 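Calls rest on a combination of fold-change classes in drug and vehicle arms, not all shown here.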

Gene,cell gain with vemurafenib,lactate per cell with vemurafenib,activity call
KIRREL1,0.14,1.54,inactive
CACNG8,0.38,1.27,inactive
SMIM7,0.54,1.67,inactive
CX3CR1,0.06,1.17,inactive
SLC39A5,-0.15,3.37,inactive
CLMN,1.18,0.3,inactive
GFPT1,0.92,0.55,inactive
ZNF563,0.04,2.46,inactive
HYI,0.18,1.31,inactive
HLCS,0.89,0.69,inactive
MRPS5,0.48,0.94,inactive
CFAP77,0.67,0.6,inactive
CEP164,0.48,0.67,inactive
MAP1B,0.71,0.49,inactive
TIMELESS,0.08,1.52,inactive
METAP2,0.25,0.66,active
PHF7,0.9,1,inactive
CHN2,0.03,1.34,inactive
C1QL1,0.33,1.5,inactive
ZNF107,0.47,1.25,inactive
CKS1B,0.62,0.48,inactive
AP3M1,0.71,1.02,inactive
OR2B3,0.45,0.98,inactive
CYP2C8,0.36,1.09,inactive
CRCP,0.86,0.98,inactive
SLC35D4,0.33,1.73,inactive
EEA1,0.83,1,inactive
LIMCH1,1.2,1.02,inactive
ATP11A,1.08,0.71,inactive
FBXO8,0.88,1.18,inactive
MTRF1,0.2,1.88,inactive
LCMT1,0.65,0.74,inactive
ANKRD46,0.69,0.47,active
LCN15,0.18,0.43,inactive
GIN1,0.28,0.52,inactive
ANOS1,0.48,1.31,inactive
PTGER1,0.68,1.21,inactive
RABGAP1,0.27,1.64,inactive
RHOBTB2,0.46,0.91,inactive
FLNA,0.64,0.78,inactive
PPP1R13B,0.78,0.58,inactive
HOXA1,0.52,1.16,inactive
NECAP2,0.27,0.88,inactive
RABGGTB,0.87,1.06,inactive
FKBP8,0.55,0.8,inactive
UBL5,-0.03,2.09,inactive
LRRC18,0.26,1.29,inactive
RNF216,0.86,0.8,inactive
AMDHD1,0.91,1.29,inactive
MUCL3,-0.04,1.55,inactive

Part of the list above in another layout:
Gene | cell gain with vemurafenib | lactate per cell with vemurafenib | activity call
GIN1 | 0.28 | 0.52 | inactive
ANOS1 | 0.48 | 1.31 | inactive
PTGER1 | 0.68 | 1.21 | inactive
RABGAP1 | 0.27 | 1.64 | inactive
RHOBTB2 | 0.46 | 0.91 | inactive
FLNA | 0.64 | 0.78 | inactive
PPP1R13B | 0.78 | 0.58 | inactive
HOXA1 | 0.52 | 1.16 | inactive
NECAP2 | 0.27 | 0.88 | inactive
RABGGTB | 0.87 | 1.06 | inactive
FKBP8 | 0.55 | 0.8 | inactive
UBL5 | -0.03 | 2.09 | inactive
LRRC18 | 0.26 | 1.29 | inactive

Continued.
Gene,cell gain with vemurafenib,lactate per cell with vemurafenib,activity call
SLCO5A1,0.41,0.78,inactive
BAGE4,0.4,1.94,inactive
ANO7,0.72,0.53,inactive
LCP1,0.62,1.23,inactive
GFM2,0.19,1.6,inactive
ZHX2,0.38,1.75,inactive
H2BC13,0.59,1.15,inactive
MYH7B,0.5,0.26,inactive
RDM1,0.68,0.73,inactive
CACNA2D3,0.82,0.33,inactive
CT47A8,0.93,0.4,active
NAA20,0.68,1.02,inactive
RPS3A,-0.02,1.67,inactive
COG8,0.16,0.74,inactive
FAM170A,0.89,0.78,inactive
CD9,0.25,0.18,active
AMY2B,0.74,0.62,inactive
PDCD1LG2,0.34,2.06,inactive
BTF3,0.63,1.09,inactive
S100PBP,0.51,1.68,inactive
TMEM167A,0.14,3.04,inactive
HNRNPM,0.7,1.86,inactive
ASTN1,1.39,0.47,inactive
SMOX,0.62,0.68,inactive
LTF,0.03,0.7,active
NFATC2IP,0.83,1.11,inactive
ITPR1,0.87,1.13,inactive
PSMD4,0.33,1.57,inactive
SMIM21,0.7,1.17,inactive
POLG2,0.91,1.68,inactive
SFXN5,-0.06,0.64,inactive
VHLL,1.08,0.56,inactive
PSG9,1.08,0.3,inactive
PRRG1,0.9,0.75,inactive
